Data published in article doi:10.1101/2021.04.12.439420.
No constants are given. Whether binding was seen depends on the method and setting. Binding seen in cells or lysates may run through a third protein. A yes stands for co-enrichment or nearness to the bait. Other partners may have been found.

By UniProt entry, the sequences of proteins in these tests, tags left out.
UniProt P63241: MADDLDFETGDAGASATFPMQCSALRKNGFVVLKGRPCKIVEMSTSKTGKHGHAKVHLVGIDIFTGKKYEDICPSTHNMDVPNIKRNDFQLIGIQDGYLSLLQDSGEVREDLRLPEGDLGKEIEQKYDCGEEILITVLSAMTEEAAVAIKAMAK

Target: RNA-Binding Protein with Multiple Splicing (human (endogenous in hESCs)) (UniProt Q93062)
Test: affinity purification with mass spectrometry

Substance: eIF5A (from UniProt P63241 1-154)
- binding: binds
